Patent US9643993B2, “Crystalline polymorphic form of ulipristal acetate” (ASKA PHARMACEUTICAL CO., LTD., priority 2012, dated 2017)
Some results were stated once for a whole list of compounds, not compound by compound. For at least one compound, name, drawing or mass did not settle the structure.

Experiment: Solubility in ethanol/water (10/90) mixed solvent at 37° C.
Settings: ethanol/water 10/90, 37° C.; summary of Table 4

CC(=O)O[C@]1(C(C)=O)CCC2C3CCC4=CC(=O)CCC4=C3[C@@H](c3ccc(N(C)C)cc3)C[C@@]21C (stereo partly drawn) [Example 3, 17alpha-acetoxy-11beta-(4-N,N-dimethylaminophenyl)-19-norpregna-4,9-diene-3,20-dione]
Solubility compared with Comparative Example (in words): significantly high solubility
